# Data reported in PubChem BioAssay AID504834 (National Center for Advancing Translational Sciences (NCATS), 2011).
# The campaign covered roughly 320,000 compounds. About 22,000 (6.9%) were called active. Inconclusive results, whose numbers are uncertain, are shown with a selection of clear calls. Calls follow the shape of the dose curve; as a rule, active = well fitted inhibition curve with a large enough effect; inconclusive = small, poorly fitted or top-dose-only effect, or another doubt; inactive = no such curve, though single readings can be large or run the other way. Potencies of inconclusive entries are doubtful fits and often do not repeat.
# Assay: Primary qHTS for delayed death inhibitors of the malarial parasite plastid, 96 hour incubation
# Conditions: P. falciparum luciferase reporter growth; series mostly up to 28.7 µM; activity change, negative = inhibition: at the top concentration
# Procedure, shortened: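 Delayed-death screen, second-generation endpoint: infected erythrocytes, 2% hematocrit, 0.05% parasitemia final; 96 hours at 37 C, 5% CO2; luciferase detection reagent; luminescence decrease equals reduced growth.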
# % is scaled to controls: 0 for no effect and ±100 for the full control effect; potency is read from the fitted curve at half-maximal effect.
SMILES,Potency,"activity change, negative = inhibition"
O=C(c1ccccc1)N1CCC(O)(c2ccc3c(c2)OCO3)CC1,"inconclusive: 10.4 µM [inhibitor, single point]",
O=C(CSc1nnc(CNC(=O)c2ccco2)o1)Nc1ccc(F)cc1,active: 10.4 µM,
CCc1ccc2c(COC(=O)C3CSC4(C)CCC(=O)N34)cc(=O)oc2c1 (configuration not stated),"inconclusive: 1.85 µM [inhibitor, full curve]",
O=C(O)CC/C(=N\Nc1ccc(S(=O)(=O)N2CCOCC2)cc1[N+](=O)[O-])c1cccs1,active: 11.7 µM,
COc1ccccc1N1CCN(C(=S)Nc2ccc(F)cc2)CC1,"inconclusive: 18.5 µM [inhibitor, single point]",
COc1ccccc1NC(=O)CN1CCN(CC(=O)Nc2ccc(F)cc2F)CC1,active: 4.15 µM,
COc1cc(C2CC(=O)N3CN(Cc4ccco4)CSC3=C2C#N)ccc1OCc1ccccc1 (configuration not stated),"inconclusive: 4.15 µM [inhibitor, full curve]",
CNC(=O)CC12CC3CC(CC(C3)C1)C2,,inactive: 26.9%
CNC(=O)/C(C#N)=C/c1ccc(OCCOc2ccccc2)cc1,,inactive: 59.6%
CC1CCN(C(=O)CCl)CC1,active: 5.86 µM,
COc1ccc(Cl)cc1NC(=O)NN1CCN(C)CC1,"inconclusive: 11.7 µM [inhibitor, single point]",
CC(C)(O)C(=O)NN(C(=O)c1ccccc1)c1cccc(Br)c1,,inactive: -4.06%
COc1ccccc1C(=O)NCCC(=O)NC1=NCCS1,,inactive: -7.83%
CCOc1ccc2[nH]c(=O)c(CN(CCc3ccccc3)C(=O)N3CCOCC3)cc2c1,"inconclusive: 18.5 µM [inhibitor, single point]",
COc1ccc(CNC(=O)C(C)N2CCN(c3ccc(C(C)=O)cc3)CC2)cc1 (configuration not stated),,inactive: -29.1%
CC(=O)NCCc1ccc(O)cc1,"inconclusive: 13.1 µM [inhibitor, single point]",
CCCCNC(=O)/C(C#N)=c1\s/c(=C\c2ccccc2OC(F)F)c(=O)n1CCCOC,,inactive: 22%
Cn1cccc1C(C#N)c1ncc(C(F)(F)F)cc1Cl (configuration not stated),"inconclusive: 18.5 µM [inhibitor, single point]",
Cc1ccc(C(=O)OCC(=O)N2CCCCCC2)c(O)c1,,inactive: 250%
O=C(Nc1ccc(Cl)cc1)Nc1nnc(Cc2ccc([N+](=O)[O-])cc2)s1,"inconclusive: 0.0026 µM [inhibitor, full curve, poor fit]",
OCCN(Cc1ccccc1)Cc1ccccc1O,"inconclusive: 9.28 µM [inhibitor, partial curve]",
C=CCSc1cc(C)nc2c(-c3ccccc3)c(C)nn12,active: 10.4 µM,
Cc1csc(SCC(=O)NC(=O)C2CCCCC2)n1,,inactive: 2.99%
CCc1ccc(NC(=O)CN(c2ccccc2)S(=O)(=O)N(C)C)cc1,,inactive: 20.1%
C/C(=C\c1ccccc1F)C(=O)c1c(C)cc(C)[nH]c1=O,"inconclusive: 8.28 µM [inhibitor, partial curve, poor fit]",
CCNC(=O)c1ccc(-n2nc(C)cc2-c2ccccc2)cc1,active: 1.47 µM,

SMILES,Potency,"activity change, negative = inhibition"
O=C(c1ccc(NS(=O)(=O)c2ccc(F)cc2)cc1)N1CCN(c2ccccc2O)CC1,"inconclusive: 10.4 µM [inhibitor, partial curve, poor fit]",
Cn1c(N)c(C(=O)CSc2nnc(C3CC3)n2-c2ccccc2)c(=O)n(C)c1=O,"inconclusive: 5.86 µM [inhibitor, partial curve]",
Cc1ccc(NC(=O)C(C)C(=O)Nc2ccc(C)cc2)cc1,"inconclusive: 18.5 µM [inhibitor, single point]",
COc1ccc(OCC(=O)NNC(=O)C2CCN(c3ncnc4sc(C)c(C)c34)CC2)cc1,"inconclusive: 4.65 µM [inhibitor, partial curve]",
CCOc1ccc(NC(=O)CC2C(=O)N(c3ccccc3)C(=O)N2CCc2cccs2)cc1 (configuration not stated),,inactive: 79%
c1ccc(-c2cccs2)nc1,,inactive: 25.6%
O=C(Nc1ccnn1C1CCN(Cc2ccccc2F)CC1)C1CCCC1,"inconclusive: 2.62 µM [inhibitor, full curve]",
Cc1cccc(NC(=O)c2ccccc2O)c1C,"inconclusive: 11.7 µM [inhibitor, single point]",
CCN(CC)CCn1c(=O)n(-c2ccc(Cl)cc2)c(=O)c2c3c(sc21)CN(C)CC3,,inactive: -14.8%
Cn1nc(C(C)(C)C)cc1C(=O)O,active: 9.28 µM,
Nc1nonc1-n1nnc(C(=O)N/N=C/c2ccccc2Br)c1CN1CCCC1,"inconclusive: 18.5 µM [inhibitor, single point]",
O=C(COC(=O)c1ccccc1[N+](=O)[O-])NC(=O)c1ccccc1,,inactive: 27.2%
CCOC(=O)[C@@H]1[C@H]2COc3ccccc3[C@@H]2N2C(=O)N(c3cccc(Cl)c3)C(=O)[C@@]12C,active: 10.4 µM,
CNC(=O)C(C)c1ncc(C(F)(F)F)cc1Cl (configuration not stated),,inactive: -8.05%
Cc1ccc(C(=O)CCCn2nnc(-c3cccnc3)n2)cc1C,"inconclusive: 0.0738 µM [inhibitor, full curve, poor fit]",
COc1ccc(OC)c(S(=O)(=O)N(C)CC(=O)Nc2cc(Cl)ccc2OC)c1,active: 7.38 µM,
COc1ccc(C(=O)CC(c2ccccc2)S(=O)(=O)c2ccc(C)cc2)cc1 (configuration not stated),"inconclusive: 5.22 µM [inhibitor, partial curve, poor fit]",
CCOc1ccc([C@@H]2CC=C(C(=O)O)[C@H](c3ccc(F)cc3)N2S(=O)(=O)c2ccc(C)cc2)cc1,"inconclusive: 18.5 µM [inhibitor, single point]",
Cc1cc(O)c(N)c(C)c1Cl,"inconclusive: 2.94 µM [inhibitor, full curve, poor fit]",
Cc1ccccc1Cn1cnc2c(NS(C)(=O)=O)c(C)c(C)cc21,"inconclusive: 3.29 µM [inhibitor, partial curve]",
O=C(CN(c1ccccc1Cl)S(=O)(=O)c1ccccc1)N/N=C/c1ccccc1C(=O)O,"inconclusive: 18.5 µM [inhibitor, single point]",
CC(=O)c1cnc(Nc2ccccc2)s1,,inactive: 103%
Cc1cc(C)c(S(=O)(=O)N2CCN(c3ccc([N+](=O)[O-])c(NCC4CCCO4)c3)CC2)c(C)c1 (configuration not stated),"inconclusive: 4.15 µM [inhibitor, single point]",
O=C(COc1ccccc1Cl)Nc1nnc(S(=O)(=O)N2CCCC2)s1,,inactive: 21.3%
Cc1ccccc1C(=O)NNC(=O)Nc1ccccc1,,inactive: 10.4%
CCN(CC)CC(=O)Nc1ccc(Oc2ccc(NC(=O)CN(CC)CC)cc2)cc1,,inactive: 3.02%

# Grouped by structure: the compounds so far containing fluorine
SMILES,Potency,"activity change, negative = inhibition"
O=C(CSc1nnc(CNC(=O)c2ccco2)o1)Nc1ccc(F)cc1,active: 10.4 µM,
COc1ccccc1N1CCN(C(=S)Nc2ccc(F)cc2)CC1,"inconclusive: 18.5 µM [inhibitor, single point]",
COc1ccccc1NC(=O)CN1CCN(CC(=O)Nc2ccc(F)cc2F)CC1,active: 4.15 µM,
CCCCNC(=O)/C(C#N)=c1\s/c(=C\c2ccccc2OC(F)F)c(=O)n1CCCOC,,inactive: 22%
Cn1cccc1C(C#N)c1ncc(C(F)(F)F)cc1Cl (configuration not stated),"inconclusive: 18.5 µM [inhibitor, single point]",
C/C(=C\c1ccccc1F)C(=O)c1c(C)cc(C)[nH]c1=O,"inconclusive: 8.28 µM [inhibitor, partial curve, poor fit]",
O=C(c1ccc(NS(=O)(=O)c2ccc(F)cc2)cc1)N1CCN(c2ccccc2O)CC1,"inconclusive: 10.4 µM [inhibitor, partial curve, poor fit]",
O=C(Nc1ccnn1C1CCN(Cc2ccccc2F)CC1)C1CCCC1,"inconclusive: 2.62 µM [inhibitor, full curve]",
CNC(=O)C(C)c1ncc(C(F)(F)F)cc1Cl (configuration not stated),,inactive: -8.05%
CCOc1ccc([C@@H]2CC=C(C(=O)O)[C@H](c3ccc(F)cc3)N2S(=O)(=O)c2ccc(C)cc2)cc1,"inconclusive: 18.5 µM [inhibitor, single point]",

# (cont.)

SMILES,Potency,"activity change, negative = inhibition"
CCCn1c(SCC(=O)NCC)nc2sc3c(c2c1=O)CCC3,,inactive: -24.1%
N/C(=N\OC(=O)c1ccco1)c1ccc(Br)cc1,,inactive: 86.7%
Cc1cccn2cc(-c3c[nH]c4ccccc34)nc12,"inconclusive: 13.1 µM [inhibitor, single point]",
COc1ccccc1NC(=O)c1ccc2nc(C)sc2c1,"inconclusive: 4.65 µM [inhibitor, partial curve, poor fit]",
COc1cccc(-c2cc(C(=O)Nn3cnnc3)c3ccccc3n2)c1,"inconclusive: 3.29 µM [inhibitor, partial curve]",
CCCCN(CC)C(=O)CSc1nc2n[nH]c(C)c2c(=N)n1-c1cccc(C)c1,"inconclusive: 11.7 µM [inhibitor, single point]",
O=C(CSc1cccc(C(F)(F)F)c1)Nc1cc(S(=O)(=O)N2CCCC2)ccc1Cl,"inconclusive: 14.7 µM [inhibitor, single point]",
CC(C)NC(=O)C1CCN(C2CCN(C(=O)Cc3ccc4c(c3)OCO4)CC2)CC1,,inactive: 6.96%
CCc1c(C)sc(NC(=O)c2cccs2)c1C(=O)OC(C)C,,inactive: 13.4%
Nc1c(C(=O)NCCc2ccccc2)nnn1Cc1ccc(Br)cc1F,"inconclusive: 18.5 µM [inhibitor, single point]",
CCOC(=O)/C(C#N)=C\c1ccc(N2CCN(C)CC2)cc1,,inactive: 25.3%
O=C(Nc1cccs1)Nc1ccc(F)cc1F,"inconclusive: 1.47 µM [inhibitor, full curve]",
O=C(Nc1nnc(SCc2ccc(F)cc2)s1)c1cnccn1,,inactive: -34.6%
Cn1c(=N)n(CC(=O)c2ccc(F)cc2)c2ccccc21,,inactive: 191%
COC(=O)c1cccnc1-n1c(=O)c2cccnc2n(Cc2cccc(C(F)(F)F)c2)c1=O,"inconclusive: 11.7 µM [inhibitor, single point]",
Cc1ccc(-c2nc3c(cnn3-c3ccccc3)c(=O)o2)cc1,,inactive: -5.05%
CC(C(=O)Nc1ccccc1-c1ccccc1)N1CCCCC1 (configuration not stated),"inconclusive: 18.5 µM [inhibitor, single point]",
O=C(Nc1nccs1)c1ccc(Br)s1,,inactive: 116%
NC(=O)c1ccccc1NC(=O)CCCCCn1nnc2ccccc2c1=O,"inconclusive: 0.928 µM [inhibitor, partial curve, poor fit]",
COc1ccc2c(c1)C(C)=CC(C)(C)N2C(=O)CSc1nnc(-c2ccc(C)cc2)o1,,inactive: -1.79%
O=C(CCCCn1c(=O)[nH]c2ccccc2c1=O)N1CCN(c2cccc(C(F)(F)F)c2)CC1,"inconclusive: 18.5 µM [inhibitor, single point]",
COCc1[nH]nc2c1C(c1ccc(OC)cc1)C(C#N)=C(N)O2 (configuration not stated),active: 1.31 µM,
Cc1ccc(Nc2nc(C)nc3c2oc2ccccc23)cc1,"inconclusive: 18.5 µM [inhibitor, single point]",
O=C(O)c1ccccc1C(=O)N1N=C(c2ccccc2)CC1c1ccccc1O (configuration not stated),"inconclusive: 16.5 µM [inhibitor, single point]",
Cc1nn(CC(=O)NC(C)C)c(C)c1[N+](=O)[O-],"inconclusive: 2.33 µM [inhibitor, full curve]",

# Taken from above:
# activity change, negative = inhibition with `COc1ccc2c(c1)C(C)=CC(C)(C)N2C(=O)CSc1nnc(-c2ccc(C)cc2)o1` is entered as inactive: -1.79%
# activity change, negative = inhibition with `CC(C)NC(=O)C1CCN(C2CCN(C(=O)Cc3ccc4c(c3)OCO4)CC2)CC1` is entered as inactive: 6.96%
